Results on one substance are retold here after article PMC4731418.

Sequences of proteins named here, by UniProt entry; tags and fusion partners are left off. A change or cut given only in a name is not applied to a line headed by its entry.
UniProt P42859: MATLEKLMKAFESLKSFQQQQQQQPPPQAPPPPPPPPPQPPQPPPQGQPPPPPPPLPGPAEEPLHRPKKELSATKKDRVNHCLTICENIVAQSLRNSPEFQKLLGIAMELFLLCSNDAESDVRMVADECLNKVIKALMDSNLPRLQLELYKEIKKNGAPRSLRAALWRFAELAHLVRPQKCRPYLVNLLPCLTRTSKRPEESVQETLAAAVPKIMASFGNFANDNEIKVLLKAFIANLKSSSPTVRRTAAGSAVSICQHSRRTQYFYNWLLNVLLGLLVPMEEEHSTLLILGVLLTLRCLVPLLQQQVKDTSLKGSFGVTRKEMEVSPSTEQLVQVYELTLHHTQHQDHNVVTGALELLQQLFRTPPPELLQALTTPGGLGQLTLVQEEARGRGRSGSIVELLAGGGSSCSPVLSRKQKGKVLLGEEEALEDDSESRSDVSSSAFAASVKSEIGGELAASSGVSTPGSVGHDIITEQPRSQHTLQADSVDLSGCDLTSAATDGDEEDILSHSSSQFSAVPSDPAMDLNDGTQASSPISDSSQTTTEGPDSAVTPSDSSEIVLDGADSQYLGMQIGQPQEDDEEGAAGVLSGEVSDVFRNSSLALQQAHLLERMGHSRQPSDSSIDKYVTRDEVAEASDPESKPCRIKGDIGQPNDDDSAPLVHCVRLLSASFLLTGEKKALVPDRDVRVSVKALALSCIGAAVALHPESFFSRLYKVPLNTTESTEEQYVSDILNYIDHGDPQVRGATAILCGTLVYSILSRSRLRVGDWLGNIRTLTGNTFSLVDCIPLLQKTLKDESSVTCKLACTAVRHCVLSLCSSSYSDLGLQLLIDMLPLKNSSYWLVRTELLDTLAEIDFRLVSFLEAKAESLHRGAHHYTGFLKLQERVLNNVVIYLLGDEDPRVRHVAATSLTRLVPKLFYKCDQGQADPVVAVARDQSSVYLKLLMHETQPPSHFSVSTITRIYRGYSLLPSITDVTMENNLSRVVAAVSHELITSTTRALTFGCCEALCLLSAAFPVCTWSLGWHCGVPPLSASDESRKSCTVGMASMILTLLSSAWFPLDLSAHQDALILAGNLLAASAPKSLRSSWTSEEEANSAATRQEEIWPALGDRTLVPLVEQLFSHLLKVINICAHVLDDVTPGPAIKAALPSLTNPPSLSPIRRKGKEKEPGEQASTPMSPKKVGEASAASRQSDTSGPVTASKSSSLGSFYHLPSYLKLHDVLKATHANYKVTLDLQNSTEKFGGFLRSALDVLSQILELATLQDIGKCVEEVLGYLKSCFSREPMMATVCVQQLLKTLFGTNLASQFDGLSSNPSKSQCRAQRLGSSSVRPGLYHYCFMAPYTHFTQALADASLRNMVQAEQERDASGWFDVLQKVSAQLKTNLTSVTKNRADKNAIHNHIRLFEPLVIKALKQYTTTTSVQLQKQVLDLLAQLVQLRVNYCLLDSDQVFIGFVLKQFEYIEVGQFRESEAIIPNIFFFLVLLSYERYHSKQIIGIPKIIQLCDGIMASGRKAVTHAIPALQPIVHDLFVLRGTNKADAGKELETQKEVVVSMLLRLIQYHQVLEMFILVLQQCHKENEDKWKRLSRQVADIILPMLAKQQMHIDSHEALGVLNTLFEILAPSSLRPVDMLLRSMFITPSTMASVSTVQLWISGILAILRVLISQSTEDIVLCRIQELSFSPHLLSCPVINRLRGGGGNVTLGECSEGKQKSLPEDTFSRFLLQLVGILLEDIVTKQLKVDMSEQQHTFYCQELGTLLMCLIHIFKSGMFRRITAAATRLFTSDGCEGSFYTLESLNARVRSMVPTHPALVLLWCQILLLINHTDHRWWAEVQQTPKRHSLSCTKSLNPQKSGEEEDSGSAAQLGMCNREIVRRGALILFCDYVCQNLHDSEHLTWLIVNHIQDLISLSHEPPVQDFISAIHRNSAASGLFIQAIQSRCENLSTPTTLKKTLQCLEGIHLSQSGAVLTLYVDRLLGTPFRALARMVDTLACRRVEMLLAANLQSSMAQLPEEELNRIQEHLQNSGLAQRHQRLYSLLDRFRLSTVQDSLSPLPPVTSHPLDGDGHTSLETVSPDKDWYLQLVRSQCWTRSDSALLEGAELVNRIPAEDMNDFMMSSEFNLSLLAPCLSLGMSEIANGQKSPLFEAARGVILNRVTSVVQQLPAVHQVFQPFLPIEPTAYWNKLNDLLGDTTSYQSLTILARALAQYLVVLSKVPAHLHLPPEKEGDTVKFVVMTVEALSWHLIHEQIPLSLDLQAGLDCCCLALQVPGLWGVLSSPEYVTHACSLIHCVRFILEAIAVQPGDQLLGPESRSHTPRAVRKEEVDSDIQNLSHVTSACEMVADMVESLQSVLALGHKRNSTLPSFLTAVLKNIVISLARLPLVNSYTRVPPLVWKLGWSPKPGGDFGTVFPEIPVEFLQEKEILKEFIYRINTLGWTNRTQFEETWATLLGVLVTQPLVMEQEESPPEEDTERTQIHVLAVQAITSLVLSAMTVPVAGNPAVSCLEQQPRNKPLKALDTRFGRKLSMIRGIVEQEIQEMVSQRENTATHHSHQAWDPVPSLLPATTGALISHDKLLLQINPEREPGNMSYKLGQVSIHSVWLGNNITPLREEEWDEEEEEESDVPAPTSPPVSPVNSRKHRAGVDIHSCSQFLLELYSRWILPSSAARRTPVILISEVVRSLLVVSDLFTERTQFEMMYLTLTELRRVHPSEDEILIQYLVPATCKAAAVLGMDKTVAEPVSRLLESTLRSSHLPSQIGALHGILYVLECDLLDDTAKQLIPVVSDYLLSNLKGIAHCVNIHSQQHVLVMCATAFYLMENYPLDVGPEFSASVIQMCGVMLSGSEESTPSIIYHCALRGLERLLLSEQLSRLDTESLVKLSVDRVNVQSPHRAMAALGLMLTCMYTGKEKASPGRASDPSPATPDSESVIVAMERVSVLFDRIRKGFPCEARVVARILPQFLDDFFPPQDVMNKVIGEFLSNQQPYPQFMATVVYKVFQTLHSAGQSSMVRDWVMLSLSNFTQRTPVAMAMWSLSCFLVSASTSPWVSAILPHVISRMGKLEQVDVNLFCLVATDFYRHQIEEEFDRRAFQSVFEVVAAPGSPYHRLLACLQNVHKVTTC

These are yes or no findings as the source states them, for the method shown. In cells and extracts the contact can be indirect. A result given as binding can be weak or reduced; the word gives no strength.

The target in this assay is T1, SIRT1 (mouse (endogenous in mouse brain)) (UniProt Q923E4).
T1 sequence: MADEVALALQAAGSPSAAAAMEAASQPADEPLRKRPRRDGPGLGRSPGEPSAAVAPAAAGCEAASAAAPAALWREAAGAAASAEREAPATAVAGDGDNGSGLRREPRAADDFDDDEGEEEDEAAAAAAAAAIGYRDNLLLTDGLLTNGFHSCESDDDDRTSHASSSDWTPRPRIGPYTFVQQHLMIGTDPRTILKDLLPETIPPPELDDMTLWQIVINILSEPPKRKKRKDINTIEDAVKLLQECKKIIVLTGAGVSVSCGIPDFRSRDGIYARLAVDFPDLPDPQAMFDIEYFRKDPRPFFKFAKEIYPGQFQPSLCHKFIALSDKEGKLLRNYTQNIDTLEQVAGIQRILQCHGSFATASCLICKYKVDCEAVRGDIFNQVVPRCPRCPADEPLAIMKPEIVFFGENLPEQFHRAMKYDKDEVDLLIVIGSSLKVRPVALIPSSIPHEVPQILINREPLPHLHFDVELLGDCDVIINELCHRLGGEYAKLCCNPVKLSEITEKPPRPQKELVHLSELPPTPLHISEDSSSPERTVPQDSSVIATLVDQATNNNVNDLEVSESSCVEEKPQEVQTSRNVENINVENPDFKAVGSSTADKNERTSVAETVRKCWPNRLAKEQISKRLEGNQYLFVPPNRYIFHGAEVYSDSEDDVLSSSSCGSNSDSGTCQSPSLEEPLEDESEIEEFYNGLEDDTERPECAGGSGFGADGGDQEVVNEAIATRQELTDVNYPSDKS
Description: co-IP; SIRT1 immunoprecipitated (1 μg antibody, 4 h, 4°C, protein G Dynabeads) from half brain lysates of R6/2 (9 weeks), HdhQ150 homozygous (22 months) and WT littermate mice in NETN buffer (20 mM Tris-HCl pH 8, 100 mM NaCl, 1 mM EDTA, 0.5% NP-40); western blot for HTT. (In western blotting, separated proteins are transferred to a membrane and probed.)

For the substance “mutant HTT of HdhQ150 knock-in homozygous mice (from UniProt P42859)”, the binding result is reported as “binds”.
